Experimental data reported in US8703918.
These are yes or no findings as the source states them, for the method shown. Some binding calls cover weakened binding; strength is not graded here.

Chains of the proteins cited; added tags and fusions are not shown.
UniProt Q04609: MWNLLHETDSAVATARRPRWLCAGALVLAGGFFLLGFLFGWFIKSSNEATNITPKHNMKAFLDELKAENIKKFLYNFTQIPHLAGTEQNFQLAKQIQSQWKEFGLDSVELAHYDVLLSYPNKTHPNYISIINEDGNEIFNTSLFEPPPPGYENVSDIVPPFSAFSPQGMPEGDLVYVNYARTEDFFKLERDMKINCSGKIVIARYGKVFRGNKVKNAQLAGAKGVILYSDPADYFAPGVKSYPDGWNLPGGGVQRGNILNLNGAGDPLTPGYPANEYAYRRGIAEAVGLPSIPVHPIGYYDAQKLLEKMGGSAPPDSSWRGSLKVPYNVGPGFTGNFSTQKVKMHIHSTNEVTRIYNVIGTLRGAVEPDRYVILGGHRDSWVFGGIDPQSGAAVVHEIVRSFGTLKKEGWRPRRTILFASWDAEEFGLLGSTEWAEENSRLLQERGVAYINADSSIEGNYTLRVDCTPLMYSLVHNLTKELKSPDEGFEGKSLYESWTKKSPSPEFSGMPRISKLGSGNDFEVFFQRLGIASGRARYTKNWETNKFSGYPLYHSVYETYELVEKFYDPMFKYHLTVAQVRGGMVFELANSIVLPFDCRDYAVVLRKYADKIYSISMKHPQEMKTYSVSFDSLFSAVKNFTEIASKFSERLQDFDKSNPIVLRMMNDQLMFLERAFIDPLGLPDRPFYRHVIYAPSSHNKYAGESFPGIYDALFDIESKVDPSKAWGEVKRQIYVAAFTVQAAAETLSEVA

Legend:
[1] = target: prostate specific membrane antigen (PSMA) (human) (UniProt Q04609); assay: Western blot on LNCaP (PSMA+) cell lysate
[2] = target: prostate specific membrane antigen (PSMA) (human) (UniProt Q04609); assay: flow cytometry binding curve on LNCaP cells
[3] = target: prostate specific membrane antigen (PSMA) (human) (UniProt Q04609); assay: immunofluorescence on fixed LNCaP cells, 10 ug/ml antibody

Measured: binding

B1: monoclonal antibody D2/B (antibody, V domains shown)
VH: EVKLQESGPGLVKPSQSLSLTCSVTGYSITSGYYWNWIRQFPGNKLEWMGSISFDGNNNYNPSLRNRISITRDTSKNQFFLKLNSVTTEDTATYYCAREGDYYGSSFFTYWGQGTLVTVS
VL: DIVMTQSPASLSASVGETVTLTCGASENIYGALNWYQRKQGKSPQLLIYGATNLADGMSSRFSGSGSGRQYSLKISSLHPDDVATYYCQNVFRTYTFGGGTKLEIKR
binds: [1] | [2] | [3]
